PMC7819943, “Rice protein-binding microarrays: a tool to detect cis-acting elements near promoter regions in rice”
The list shows a part of the results.

Biological target: T1, OsSMF1 (Oryza sativa, UniProt Q6ZLB0 1-436)
T1 sequence: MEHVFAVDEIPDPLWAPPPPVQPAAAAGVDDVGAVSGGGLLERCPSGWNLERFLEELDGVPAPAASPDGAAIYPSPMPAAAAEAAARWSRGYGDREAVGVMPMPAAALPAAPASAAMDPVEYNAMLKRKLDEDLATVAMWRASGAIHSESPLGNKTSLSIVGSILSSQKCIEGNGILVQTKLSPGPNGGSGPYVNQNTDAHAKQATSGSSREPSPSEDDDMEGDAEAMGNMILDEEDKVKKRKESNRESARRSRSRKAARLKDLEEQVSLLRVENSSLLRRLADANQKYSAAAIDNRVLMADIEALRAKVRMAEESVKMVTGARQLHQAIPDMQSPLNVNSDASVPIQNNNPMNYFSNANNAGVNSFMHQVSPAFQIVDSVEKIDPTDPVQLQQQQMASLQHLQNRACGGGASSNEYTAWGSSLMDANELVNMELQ
Test: protein-binding microarray (RPBM); PBS, 2% BSA, 51.3 ng/ul salmon testes DNA, 50 uM zinc acetate, 200 nM TF, 25 C, 1 h; high values mean tight binding
Conditions: protein: recombinant; tags: N-terminal polyhistidine and DsRed monomer fusion (pET32a); chain copies: 2; label: CyDye5-dUTP incorporated in the synthesized complementary strand; 3' TTTTT single-stranded linker to array surface; dsDNA, one strand shown
Procedure, shortened: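 A custom Agilent array was converted to double-stranded form by primer extension with Cy5-dUTP and blocked with 2% BSA. Protein at 200 nM in PBS with 2% BSA, salmon testes DNA and 50 µM zinc acetate was applied for 1 h at 25 °C, followed by washing. The proteins were polyhistidine–DsRed N-terminal fusions of transcription factors, expressed in E. coli BL21-CodonPlus and Ni–NTA-purified. The binding signal is per-feature fluorescence intensity (arbitrary units) from an Axon 4000B scanner.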

Compared with “CTATGGCTCATGAGCCAAAATTCAAAAGGCTAACGTTGGCCGGAGTCACCTAGTGCAG”, “GCCCATCAGCCAACCTCCCCTTAGGCCTGATGACACGGAACGGAGTCACCTAGTGCAG” is lower in binding signal: 43400 fluorescence intensity (a.u.) for the first, 3890 fluorescence intensity (a.u.) for the second.

Compared with “GCTGTTTCATTCAACTGACAAATTCTGTTCATAGTCACGCCGGAGTCACCTAGTGCAG”, “AGGAGTCTCCCGTACATGCGGCCTGATTTGACCCAATCCCCGGAGTCACCTAGTGCAG” is lower in binding signal: 4060 fluorescence intensity (a.u.) for the first, 3820 fluorescence intensity (a.u.) for the second.

Compared with “TTCACTAATGTGGCCCATGATGACTCGGCCGGTTAGACTACGGAGTCACCTAGTGCAG”, “CGCGCCGCGCACGCACGCACGCACGCATGTGCCCACCCTGCGGAGTCACCTAGTGCAG” is lower in binding signal: 6150 fluorescence intensity (a.u.) for the first, 3470 fluorescence intensity (a.u.) for the second.

First: TCGCCGACCCTGCCACCGCAATGACTCCCCTGCCGCCGCCCGGAGTCACCTAGTGCAG
Second: AGCAAATCTTAAGATTGACGAAGTCAGCACGGATGTTTCGCGGAGTCACCTAGTGCAG
The binding signal of the first is higher: 4070 fluorescence intensity (a.u.) for the first, 3250 fluorescence intensity (a.u.) for the second.

Going from “TTAACTTTGACGTGTTGCAACACCATCATGGGCTAACGTTCGGAGTCACCTAGTGCAG” to “AATTGCCCACACTCCACGCAAGCCGGCCCAACTCCTTGGACGGAGTCACCTAGTGCAG”, the binding signal falls from 5020 fluorescence intensity (a.u.) to 4030 fluorescence intensity (a.u.).

Going from “CGCCGTCGCCCATTTCGGCATGCGTTATCACCGCCGCCACCGGAGTCACCTAGTGCAG” to “GCCCACAAACACAAGCGCTGTTTTCCTCTCCTACCCTTTTCGGAGTCACCTAGTGCAG”, the binding signal falls from 3450 fluorescence intensity (a.u.) to 3310 fluorescence intensity (a.u.).

Going from “GGGACGTGTGATGAACTTACTCCATATAAATAAACATACGCGGAGTCACCTAGTGCAG” to “GATTGTTCTTCTCGCTTCTGAATTGTTGTGACCTGTAACTCGGAGTCACCTAGTGCAG”, the binding signal falls from 4600 fluorescence intensity (a.u.) to 3150 fluorescence intensity (a.u.).

Going from “CAGTGACCGTGACGTGATACATGGAGATAACGCCGCCTGGCGGAGTCACCTAGTGCAG” to “TCGTTTGGAGGACATTGAGGGAGAAAGCATCTCATTTTCCCGGAGTCACCTAGTGCAG”, the binding signal rises from 6620 fluorescence intensity (a.u.) to 8540 fluorescence intensity (a.u.).

Compared with “ATATCGAGCTGAGTTCTCCACGTCGGCCTGACTGCGACTGCGGAGTCACCTAGTGCAG”, “CGCCGTCGTATGCGTGGCTCCCCTCCCCGGCCTCTCGTCTCGGAGTCACCTAGTGCAG” is lower in binding signal: 9540 fluorescence intensity (a.u.) for the first, 4790 fluorescence intensity (a.u.) for the second.

Going from “CAACTCATCCATCCCCACCTTGTCCACGTCGTCGCCTATACGGAGTCACCTAGTGCAG” to “ATCACAAGATTTTGTAGTAGATGCCAAGTGGTGACTGACACGGAGTCACCTAGTGCAG”, the binding signal falls from 10600 fluorescence intensity (a.u.) to 4360 fluorescence intensity (a.u.).

First: AAGAAACAAACAGACACGTAAGGAGGAGAAATTTCCCCTCCGGAGTCACCTAGTGCAG
Second: GGCTGAGAAATAGTAACTGGGCCAACATGCGTGTTGACTACGGAGTCACCTAGTGCAG
The binding signal of the first is higher: 5190 fluorescence intensity (a.u.) for the first, 3440 fluorescence intensity (a.u.) for the second.

“TACTTTCAACTTTTACCGTGTAAAATGACTCATTCAACTGCGGAGTCACCTAGTGCAG” was tested, and the binding signal was 6560 fluorescence intensity (a.u.).
